Experimental data reported in patent US20030007956A1.
These are yes or no findings as the source states them, for the method shown. In cells and extracts the contact can be indirect. Some entries that bind do so weakly or less than the wild type. Sequences can lack the tags named with a protein.

Chains of the proteins cited; added tags and fusions are not shown. Lines headed by an entry give the natural chain unless they say otherwise; changes in a name come on top. A line that says so, or that is headed by a name, gives the form on record, which may keep a tag or linker.
HA-βTrCP (Q9Y297, form named): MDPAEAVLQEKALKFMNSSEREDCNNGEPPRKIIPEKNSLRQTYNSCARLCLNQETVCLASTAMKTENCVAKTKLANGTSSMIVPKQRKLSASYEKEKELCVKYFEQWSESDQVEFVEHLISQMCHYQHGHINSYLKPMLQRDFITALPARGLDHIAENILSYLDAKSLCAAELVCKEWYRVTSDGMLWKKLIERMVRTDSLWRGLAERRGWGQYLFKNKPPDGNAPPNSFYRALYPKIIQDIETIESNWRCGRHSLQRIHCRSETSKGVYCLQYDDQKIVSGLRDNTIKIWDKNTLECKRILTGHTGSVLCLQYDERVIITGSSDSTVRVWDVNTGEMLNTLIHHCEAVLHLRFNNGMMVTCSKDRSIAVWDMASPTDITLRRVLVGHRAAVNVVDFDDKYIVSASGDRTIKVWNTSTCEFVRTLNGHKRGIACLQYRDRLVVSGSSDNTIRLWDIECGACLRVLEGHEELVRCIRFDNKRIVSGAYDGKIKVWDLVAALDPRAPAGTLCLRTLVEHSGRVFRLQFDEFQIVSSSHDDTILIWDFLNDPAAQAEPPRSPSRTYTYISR

B1: Myc-RasSF1C (protein, human, UniProt Q9NS23-4 1-270, looked up, not shown: small tags and cut ends)
chain: MGEAEAPSFEMTWSSTTSSGYCSQEDSDSELEQYFTARTSLARRPRRDQDEPVEWETPDLSQAEIEQKIKEYNAQINSNLFMSLNKDGSYTGFIKVQLKLVRPVSVPSSKKPPSLQDARRGPGRGTSVRRRTSFYLPKDAVKHLHVLSRTRAREVIEALLRKFLVVDDPRKFALFERAERHGQVYLRKLLDDEQPLRLRLLAGPSDKALSFVLKENDSGEVNWDAFSMPELHNFLRILQREEEEHLRQILQKYSYCRQKIQEALHACPLG
B2: Myc-RasSF1A (protein, human, UniProt Q9NS23-2 1-340, looked up, not shown: small tags and cut ends)
chain: MSGEPELIELRELAPAGRAGKGRTRLERANALRIARGTACNPTRQLVPGRGHRFQPAGPATHTWCDLCGDFIWGVVRKGLQCAHCKFTCHYRCRALVCLDCCGPRDLGWEPAVERDTNVDEPVEWETPDLSQAEIEQKIKEYNAQINSNLFMSLNKDGSYTGFIKVQLKLVRPVSVPSSKKPPSLQDARRGPGRGTSVRRRTSFYLPKDAVKHLHVLSRTRAREVIEALLRKFLVVDDPRKFALFERAERHGQVYLRKLLDDEQPLRLRLLAGPSDKALSFVLKENDSGEVNWDAFSMPELHNFLRILQREEEEHLRQILQKYSYCRQKIQEALHACPLG

Tests used:
Myc-RasSF1A (human) [1] = biological target: T1, Myc-RasSF1A (human) (UniProt Q9NS23); test: co-immunoprecipitation with anti-myc 9E10 from 35S-labelled HeLa cells
T1 sequence (looked up): B2 chain

Myc-RasSF1A (human) [2] = biological target: T1, Myc-RasSF1A (human); test: co-immunoprecipitation with anti-myc, SDS gels of 35S-labelled proteins
Myc-RasSF1A (human) [3] = biological target: T1, Myc-RasSF1A (human); test: co-immunoprecipitation with anti-myc 9E10 from 35S-labelled HeLa cells, SDS PAGE and autoradiography
HA-βTrCP (human) [4] = biological target: HA-βTrCP (human) (UniProt Q9Y297); test: co-immunoprecipitation from 293 cells, Western blot
HA-βTrCP (human) [5] = biological target: HA-βTrCP (human) (UniProt Q9Y297); test: co-immunoprecipitation with anti-HA 3F10 from co-transfected 293 cells, anti-myc Western blot

Molecule	binding (Myc-RasSF1A (human) [1])	binding (Myc-RasSF1A (human) [2])	binding (Myc-RasSF1A (human) [3])	binding (HA-βTrCP (human) [4])	binding (HA-βTrCP (human) [5])
HA-βTrCP (from UniProt Q9Y297 1-569)	binds	binds	binds	–	–
B1	–	–	–	binds	binds
B2	–	–	–	binds	binds
